Data taken from paper PMC8256712, “Crystal structures of Aspergillus oryzae Rib2 deaminase: the functional mechanism involved in riboflavin biosynthesis” (IUCrJ, 2021).
No constants are given. Whether binding was seen depends on the method and setting.

How the values were obtained:
[1] = biological target: Aspergillus oryzae Rib2 deaminase (Aspergillus oryzae) (UniProt Q2UFA9); experiment: AUC; sedimentation velocity, 0.3 mg/ml protein in 20 mM PBS pH 7.5, 293 K, 42 000 rev/min, analysed with SEDFIT; both purified
[2] = biological target: AoRib2 deaminase domain (residues 1-188) (Aspergillus oryzae) (UniProt Q2UFA9); experiment: as above

Binder | binding [1] | binding [2]
Aspergillus oryzae Rib2 deaminase (enzyme, UniProt Q2UFA9 1-222) MQSPHAKYLRECLSLAEKSPPRPTNFRVGAILVSRKEGDYKTEDDRIVSTGYTMELAGNTHAEQCCLSNYAAVHSVPEDRVWEVLPSEPDRKLVMYVTMEPCGKRLSGNLPCVQRIIRTRQGDRKGIQKIYFGVKEPGTFVGGSEGCQMLTAAGIDWQVVNGLEREILEVAVAGHENREEEVKAALDTVETNIDDISDDERRRQQEAQRNPKKRMMEANLLG | no binding (tested: 0.3 mg ml^-1) | 
AoRib2 deaminase domain (residues 1-188) (domain or fragment, UniProt Q2UFA9 1-188) MQSPHAKYLRECLSLAEKSPPRPTNFRVGAILVSRKEGDYKTEDDRIVSTGYTMELAGNTHAEQCCLSNYAAVHSVPEDRVWEVLPSEPDRKLVMYVTMEPCGKRLSGNLPCVQRIIRTRQGDRKGIQKIYFGVKEPGTFVGGSEGCQMLTAAGIDWQVVNGLEREILEVAVAGHENREEEVKAALDT |  | no binding (tested: 0.3 mg ml^-1)
